PubChem BioAssay AID743121 | NCATS | 2013

- Aim: 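Genes whose silencing strengthens cell killing by camptothecin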 (primary screen)
- Cell system: MDA-MB-231 cells, a human breast cancer line
- Reagents: single siRNA against human genes, 20 nM siRNA (0.8 pmol per well)
- Time to read-out: 120 h (drug added 48 h after transfection, read 72 h later)
- Challenge: camptothecin 20 nM (about EC30) for 72 h; vehicle 0.1% DMSO in parallel plates
- Read-out: 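CellTiter-Glo ATP signal, scaled to control siRNA as percent viability; sensitisation given as log2 of untreated divided by camptothecin-treated viability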
- Reading the numbers: log2 vehicle/camptothecin viability: higher = stronger sensitisation to camptothecin
- Active means: 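Active genes have an RSA gene-level p-value below 0.001, computed from the ratios of their separate siRNAs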
Shown is one part, drawn at random, of about 26,000 reagents. Of all reagents, 167 (0.63%) got an active call. 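Calls are per gene from RSA p-values that are not deposited; an individual active-marked siRNA can sensitise only weakly.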 Reagents against one gene are numbered here. Further read-outs or replicates are left out here.

no.	Gene	siRNA no.	log2 vehicle/camptothecin viability	activity call
1	FSHR (GeneID 2492)	1	-0.101	inactive
2	FSHR (GeneID 2492)	2	-0.199	inactive
3	FSHR (GeneID 2492)	3	0.22	inactive
4	FSHR (GeneID 2492)	4	-0.00763	inactive
5	MINK1 (GeneID 50488)	1	-0.403	inactive
6	MINK1 (GeneID 50488)	2	-0.234	inactive
7	MINK1 (GeneID 50488)	3	-0.591	inactive
8	MINK1 (GeneID 50488)	4	-0.322	inactive
9	SOST (GeneID 50964)	1	-0.27	inactive
10	SOST (GeneID 50964)	2	-0.0189	inactive
11	SOST (GeneID 50964)	3	1.11	inactive
12	SENP8 (GeneID 123228)	1	-0.0104	inactive
13	SENP8 (GeneID 123228)	2	-0.405	inactive
14	SENP8 (GeneID 123228)	3	-0.186	inactive
15	SENP8 (GeneID 123228)	4	0.0756	inactive
16	ABCD4 (GeneID 5826)	1	-0.545	inactive
17	ABCD4 (GeneID 5826)	2	-0.361	inactive
18	ABCD4 (GeneID 5826)	3	0.156	inactive
19	ABCD4 (GeneID 5826)	4	0.384	inactive

As entered above.
Result for SOST (GeneID 50964) #2 under “log2 vehicle/camptothecin viability”: -0.0189
For “activity call”, MINK1 (GeneID 50488) #3 is entered as inactive

The results go on:
no.	Gene	siRNA no.	log2 vehicle/camptothecin viability	activity call
20	NCAM1 (GeneID 4684)	1	1.09	active
21	NCAM1 (GeneID 4684)	2	1.11	active
22	NCAM1 (GeneID 4684)	3	-0.238	active
23	CD93 (GeneID 22918)	1	0.683	inactive
24	CD93 (GeneID 22918)	2	-0.11	inactive
25	CD93 (GeneID 22918)	3	-0.377	inactive
26	CD93 (GeneID 22918)	4	-0.177	inactive
27	KLK4 (GeneID 9622)	1	0.551	inactive
28	KLK4 (GeneID 9622)	2	0.775	inactive
29	KLK4 (GeneID 9622)	3	-0.0521	inactive
30	KLK4 (GeneID 9622)	4	-0.103	inactive
